For four substances, binding results are on record in article doi:10.1101/373761.

Sequences of proteins named here, by UniProt entry; tags and fusion partners are left off.
UniProt P03165: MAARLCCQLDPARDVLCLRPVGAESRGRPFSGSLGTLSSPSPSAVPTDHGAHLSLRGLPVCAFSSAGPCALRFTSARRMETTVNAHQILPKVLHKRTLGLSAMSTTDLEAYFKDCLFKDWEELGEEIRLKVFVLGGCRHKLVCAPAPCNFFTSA
UniProt Q00987: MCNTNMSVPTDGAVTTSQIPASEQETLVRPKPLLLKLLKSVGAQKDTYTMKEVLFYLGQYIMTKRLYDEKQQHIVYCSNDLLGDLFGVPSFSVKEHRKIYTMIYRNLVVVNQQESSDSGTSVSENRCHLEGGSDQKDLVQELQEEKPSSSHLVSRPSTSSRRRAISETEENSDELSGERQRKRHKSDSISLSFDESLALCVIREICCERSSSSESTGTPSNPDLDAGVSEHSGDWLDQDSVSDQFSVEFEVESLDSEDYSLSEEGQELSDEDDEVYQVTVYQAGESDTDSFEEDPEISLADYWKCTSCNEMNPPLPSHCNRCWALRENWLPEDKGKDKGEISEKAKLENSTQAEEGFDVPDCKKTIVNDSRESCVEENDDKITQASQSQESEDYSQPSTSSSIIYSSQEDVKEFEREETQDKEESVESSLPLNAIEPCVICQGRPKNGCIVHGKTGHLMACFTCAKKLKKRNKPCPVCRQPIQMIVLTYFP
UniProt Q13547: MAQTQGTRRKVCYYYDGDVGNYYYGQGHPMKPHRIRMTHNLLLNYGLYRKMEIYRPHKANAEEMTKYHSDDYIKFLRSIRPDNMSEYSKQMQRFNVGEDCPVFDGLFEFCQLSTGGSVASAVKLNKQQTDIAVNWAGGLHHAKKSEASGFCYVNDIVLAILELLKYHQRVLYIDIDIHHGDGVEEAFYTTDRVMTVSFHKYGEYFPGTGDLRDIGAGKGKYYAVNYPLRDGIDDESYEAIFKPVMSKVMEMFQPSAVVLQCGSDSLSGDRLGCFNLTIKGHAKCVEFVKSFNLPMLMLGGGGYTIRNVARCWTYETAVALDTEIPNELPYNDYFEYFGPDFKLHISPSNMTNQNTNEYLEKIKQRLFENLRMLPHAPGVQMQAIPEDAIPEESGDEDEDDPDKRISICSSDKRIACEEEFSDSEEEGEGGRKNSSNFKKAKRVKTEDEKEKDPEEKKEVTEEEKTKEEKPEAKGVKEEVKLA

No constants are given. Whether binding was seen depends on the method and setting. Binding seen in cells or lysates may run through a third protein. Some results given as binding are weak or reduced against the parent protein; the word gives no strength. For some of these results: Tags and fused reporters may be left off the sequences shown.

For one test, the target named is T1, GST-tagged GYS2 (human) (UniProt P54840).
T1 sequence: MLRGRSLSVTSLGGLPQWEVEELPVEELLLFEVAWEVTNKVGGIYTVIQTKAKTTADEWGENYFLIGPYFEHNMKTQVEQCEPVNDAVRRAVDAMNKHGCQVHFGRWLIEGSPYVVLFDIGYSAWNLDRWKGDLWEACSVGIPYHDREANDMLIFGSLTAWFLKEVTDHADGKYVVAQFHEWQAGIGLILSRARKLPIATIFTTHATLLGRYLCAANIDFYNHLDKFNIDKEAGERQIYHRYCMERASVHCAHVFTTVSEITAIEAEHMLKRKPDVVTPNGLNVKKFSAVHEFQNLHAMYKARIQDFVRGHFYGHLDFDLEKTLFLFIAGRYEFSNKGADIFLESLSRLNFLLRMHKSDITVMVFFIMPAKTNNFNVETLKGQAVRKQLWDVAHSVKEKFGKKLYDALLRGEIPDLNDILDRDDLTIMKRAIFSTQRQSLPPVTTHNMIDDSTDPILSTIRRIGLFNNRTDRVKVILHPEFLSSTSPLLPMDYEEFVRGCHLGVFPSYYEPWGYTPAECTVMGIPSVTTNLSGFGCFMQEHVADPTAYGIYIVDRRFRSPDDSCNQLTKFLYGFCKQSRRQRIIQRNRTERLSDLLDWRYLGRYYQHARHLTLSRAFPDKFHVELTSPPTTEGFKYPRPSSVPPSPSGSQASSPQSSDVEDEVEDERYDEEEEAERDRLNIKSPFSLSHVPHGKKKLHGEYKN
The test is described as follows: pull-down.

Test [1] addresses T2, glycogen synthase 2 (GYS2) (human (endogenous in HepG2 and QGY-7703)) (UniProt P54840).
T2 sequence: T1 sequence
Description: co-IP.

The next test has as its target HBx (hepatitis B virus) (UniProt P03165). The test is described as follows: co-IP.

Take “His-tagged MDM2 (from UniProt Q00987 1-491) (enzyme)”: the binding result with GST-tagged GYS2 (human) is reported as “binds”. On the same count and under the same terms, the same measure for “His-tagged p53 (from UniProt P04637 1-393)”: “binds”. Consider “MDM2 (from UniProt Q00987 1-491) (enzyme)”, for which, in test [1], the binding result is “binds”. With “HDAC1 (from UniProt Q13547 1-482) (enzyme)”, the binding result in the test with HBx (hepatitis B virus) is on record as “binds”.
